Measurements: article PMC12334247

Target: T1, ORC2 (origin recognition complex subunit 2), yeast two-hybrid fusion (Arabidopsis thaliana) (UniProt Q38899)
T1 sequence: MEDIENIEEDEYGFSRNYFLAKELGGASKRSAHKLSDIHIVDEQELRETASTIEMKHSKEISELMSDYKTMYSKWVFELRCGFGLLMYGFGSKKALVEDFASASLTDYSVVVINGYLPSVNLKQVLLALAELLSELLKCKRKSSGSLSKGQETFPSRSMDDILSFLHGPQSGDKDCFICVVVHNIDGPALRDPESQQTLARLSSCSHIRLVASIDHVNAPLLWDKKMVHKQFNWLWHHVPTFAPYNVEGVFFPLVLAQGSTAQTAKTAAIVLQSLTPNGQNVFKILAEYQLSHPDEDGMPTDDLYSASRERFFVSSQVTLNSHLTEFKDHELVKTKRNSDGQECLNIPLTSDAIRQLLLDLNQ
Assay: two-hybrid; yeast strain PJ694-a; fusions to AD (pDEST22) and BD (pDEST32); -Leu/-Trp selects co-transformation, -Leu/-Trp/-His/-Ade selects for strong interaction

Substance: ABAP1 interacting protein 10 (AIP10), yeast two-hybrid fusion (Arabidopsis thaliana)
- binding: no binding

No constants are given. Whether binding was seen depends on the method and setting. Sequences can lack the tags named with a protein.
